Measured values taken from patent publication US20100254928A1, “NOVEL COMPOSITION CONTAINING OZONIZED SURFACTANT” (priority 2007, published 2010).

Tests used:
[1] = tested on: standard activated sludge; assay: Biodegradability test (biochemical oxygen consumption); conditions: activated sludge 30 mg/L, 25±1° C.
[2] = Detergency against dirt on the floor; parameters: key: Excellent: Obviously superior to POE (20 EO) lauryl ether; Good: Comparable to POE (20 EO) lauryl ether; Fair: Slightly inferior to POE (20 EO) lauryl ether; Poor: Obviously inferior to POE (20 EO) lauryl ether; conditions: 0.2% aqueous solution, pH 7.2, room temperature, 3 panel members averaged

Row | Compound | Degradation, Day 7 [1] | Degradation, Day 14 [1] | Degradation, Day 15 [1] | Degradation, Day 28 [1] | BOD, Day 7 ([1]; 300 mL) | BOD, Day 14 ([1]; 300 mL) | BOD, Day 15 ([1]; 300 mL) | BOD, Day 28 ([1]; 300 mL) | Detergency against dirt on the floor (Visually observed) [2]
1 | Nc1ccccc1 [aniline, reference compound] | 50% | 68% | 69% | 69% | 54.1 mg | 73.4 mg | 73.6 mg | 74.3 mg | –
2 | decaglycerin monooleate [Decaglycerol monooleate, reference compound] | – | – | – | – | – | – | – | – | Fair
